The other results are listed elsewhere or left out.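 Rule for the calls: active = dose-dependent thermal stabilisation significant by F-test of dose-response against flat model at 10% FDR; inactive = not significant.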
Compound: Nc1nc2c(ncn2[C@@H]2O[C@H](COP(=O)(O)OP(=O)(O)OP(=O)(O)O)[C@@H](O)[C@H]2O)c(=O)[nH]1
Experiment: dose-dependent thermal stabilisation call (2D-TPP, DLPTP, 10% FDR) (binary (1 = stabilised)); higher = stabilised by the compound
Conditions: system: Jurkat gel-filtered lysate; concentration range 1-500 µM

The chains behind the UniProt entries cited, without tags or fusion partners. Where a name states a change or a piece, a line headed by the entry shows the natural chain unless it says otherwise.
UniProt P55212: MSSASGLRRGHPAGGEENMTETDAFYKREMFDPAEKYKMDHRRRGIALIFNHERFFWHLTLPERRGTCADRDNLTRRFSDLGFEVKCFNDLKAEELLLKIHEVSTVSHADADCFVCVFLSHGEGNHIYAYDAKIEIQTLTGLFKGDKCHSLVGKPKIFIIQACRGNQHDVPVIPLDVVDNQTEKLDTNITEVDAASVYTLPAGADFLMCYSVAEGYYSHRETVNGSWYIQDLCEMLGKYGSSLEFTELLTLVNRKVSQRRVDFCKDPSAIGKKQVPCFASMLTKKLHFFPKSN
UniProt Q12834, whole entry: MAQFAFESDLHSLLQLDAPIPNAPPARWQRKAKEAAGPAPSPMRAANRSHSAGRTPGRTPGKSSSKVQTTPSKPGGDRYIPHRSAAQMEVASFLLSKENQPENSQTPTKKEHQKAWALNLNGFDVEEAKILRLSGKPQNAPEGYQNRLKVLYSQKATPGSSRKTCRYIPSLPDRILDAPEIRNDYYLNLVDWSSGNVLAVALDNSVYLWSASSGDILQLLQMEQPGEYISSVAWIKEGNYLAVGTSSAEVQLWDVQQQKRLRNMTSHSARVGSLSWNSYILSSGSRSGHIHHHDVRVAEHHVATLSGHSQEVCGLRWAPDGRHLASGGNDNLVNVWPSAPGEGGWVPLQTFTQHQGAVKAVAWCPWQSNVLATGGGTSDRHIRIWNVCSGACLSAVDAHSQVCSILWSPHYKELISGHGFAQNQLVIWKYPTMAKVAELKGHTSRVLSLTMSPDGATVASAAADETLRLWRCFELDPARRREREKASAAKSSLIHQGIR
UniProt O75081: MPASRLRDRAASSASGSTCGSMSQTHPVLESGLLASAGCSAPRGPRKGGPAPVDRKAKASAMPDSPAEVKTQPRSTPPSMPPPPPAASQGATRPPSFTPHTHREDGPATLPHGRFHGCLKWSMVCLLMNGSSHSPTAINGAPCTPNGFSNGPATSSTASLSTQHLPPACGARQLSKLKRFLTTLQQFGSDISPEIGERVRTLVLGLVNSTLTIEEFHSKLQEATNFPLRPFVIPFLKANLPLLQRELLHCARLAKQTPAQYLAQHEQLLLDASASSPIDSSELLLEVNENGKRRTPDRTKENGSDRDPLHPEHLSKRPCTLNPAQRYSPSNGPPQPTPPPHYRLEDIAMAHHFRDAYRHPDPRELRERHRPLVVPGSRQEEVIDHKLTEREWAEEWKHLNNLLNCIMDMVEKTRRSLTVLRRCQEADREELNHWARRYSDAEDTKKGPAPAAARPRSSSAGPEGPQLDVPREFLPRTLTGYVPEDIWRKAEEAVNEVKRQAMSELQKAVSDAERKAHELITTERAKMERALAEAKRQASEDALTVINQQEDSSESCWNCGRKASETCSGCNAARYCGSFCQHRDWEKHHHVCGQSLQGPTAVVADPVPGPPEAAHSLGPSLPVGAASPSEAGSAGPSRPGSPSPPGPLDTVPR
UniProt Q16630, whole entry: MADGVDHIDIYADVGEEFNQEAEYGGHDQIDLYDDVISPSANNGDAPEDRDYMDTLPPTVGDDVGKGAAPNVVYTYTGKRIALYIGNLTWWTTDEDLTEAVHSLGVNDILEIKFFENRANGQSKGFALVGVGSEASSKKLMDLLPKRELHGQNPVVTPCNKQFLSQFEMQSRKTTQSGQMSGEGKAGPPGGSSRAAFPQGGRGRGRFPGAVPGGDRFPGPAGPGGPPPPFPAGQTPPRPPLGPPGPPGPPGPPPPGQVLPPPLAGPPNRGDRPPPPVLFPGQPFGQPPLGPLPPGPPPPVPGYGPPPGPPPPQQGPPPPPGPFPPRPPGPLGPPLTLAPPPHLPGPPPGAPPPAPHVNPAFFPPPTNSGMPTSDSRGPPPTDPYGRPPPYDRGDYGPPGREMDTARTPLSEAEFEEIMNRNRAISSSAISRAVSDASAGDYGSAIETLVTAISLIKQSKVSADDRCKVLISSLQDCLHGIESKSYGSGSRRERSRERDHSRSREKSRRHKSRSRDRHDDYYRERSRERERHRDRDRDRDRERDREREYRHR
UniProt Q9NRG0: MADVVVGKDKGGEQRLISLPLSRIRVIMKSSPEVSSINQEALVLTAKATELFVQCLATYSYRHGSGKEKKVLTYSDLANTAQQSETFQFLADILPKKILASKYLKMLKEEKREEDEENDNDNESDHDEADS
UniProt P13073, whole entry: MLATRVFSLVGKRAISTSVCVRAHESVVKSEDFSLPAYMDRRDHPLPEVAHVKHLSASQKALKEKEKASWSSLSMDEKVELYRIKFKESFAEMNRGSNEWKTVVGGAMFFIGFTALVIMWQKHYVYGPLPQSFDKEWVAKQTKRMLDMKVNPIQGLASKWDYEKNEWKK
UniProt Q9H9Q2: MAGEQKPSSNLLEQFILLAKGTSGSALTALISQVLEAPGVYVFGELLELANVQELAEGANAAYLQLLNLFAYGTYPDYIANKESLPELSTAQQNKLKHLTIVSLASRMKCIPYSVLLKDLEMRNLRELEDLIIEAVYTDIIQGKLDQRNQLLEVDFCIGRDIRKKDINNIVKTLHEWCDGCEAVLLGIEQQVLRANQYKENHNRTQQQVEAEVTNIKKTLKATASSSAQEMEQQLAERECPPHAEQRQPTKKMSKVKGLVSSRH
UniProt Q9H0A8, whole entry: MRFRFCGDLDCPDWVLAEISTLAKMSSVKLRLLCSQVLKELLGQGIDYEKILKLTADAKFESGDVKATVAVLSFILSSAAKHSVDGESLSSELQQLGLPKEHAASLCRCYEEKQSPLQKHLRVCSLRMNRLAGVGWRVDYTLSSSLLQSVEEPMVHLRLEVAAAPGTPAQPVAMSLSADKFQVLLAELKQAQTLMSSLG
UniProt Q5SW79: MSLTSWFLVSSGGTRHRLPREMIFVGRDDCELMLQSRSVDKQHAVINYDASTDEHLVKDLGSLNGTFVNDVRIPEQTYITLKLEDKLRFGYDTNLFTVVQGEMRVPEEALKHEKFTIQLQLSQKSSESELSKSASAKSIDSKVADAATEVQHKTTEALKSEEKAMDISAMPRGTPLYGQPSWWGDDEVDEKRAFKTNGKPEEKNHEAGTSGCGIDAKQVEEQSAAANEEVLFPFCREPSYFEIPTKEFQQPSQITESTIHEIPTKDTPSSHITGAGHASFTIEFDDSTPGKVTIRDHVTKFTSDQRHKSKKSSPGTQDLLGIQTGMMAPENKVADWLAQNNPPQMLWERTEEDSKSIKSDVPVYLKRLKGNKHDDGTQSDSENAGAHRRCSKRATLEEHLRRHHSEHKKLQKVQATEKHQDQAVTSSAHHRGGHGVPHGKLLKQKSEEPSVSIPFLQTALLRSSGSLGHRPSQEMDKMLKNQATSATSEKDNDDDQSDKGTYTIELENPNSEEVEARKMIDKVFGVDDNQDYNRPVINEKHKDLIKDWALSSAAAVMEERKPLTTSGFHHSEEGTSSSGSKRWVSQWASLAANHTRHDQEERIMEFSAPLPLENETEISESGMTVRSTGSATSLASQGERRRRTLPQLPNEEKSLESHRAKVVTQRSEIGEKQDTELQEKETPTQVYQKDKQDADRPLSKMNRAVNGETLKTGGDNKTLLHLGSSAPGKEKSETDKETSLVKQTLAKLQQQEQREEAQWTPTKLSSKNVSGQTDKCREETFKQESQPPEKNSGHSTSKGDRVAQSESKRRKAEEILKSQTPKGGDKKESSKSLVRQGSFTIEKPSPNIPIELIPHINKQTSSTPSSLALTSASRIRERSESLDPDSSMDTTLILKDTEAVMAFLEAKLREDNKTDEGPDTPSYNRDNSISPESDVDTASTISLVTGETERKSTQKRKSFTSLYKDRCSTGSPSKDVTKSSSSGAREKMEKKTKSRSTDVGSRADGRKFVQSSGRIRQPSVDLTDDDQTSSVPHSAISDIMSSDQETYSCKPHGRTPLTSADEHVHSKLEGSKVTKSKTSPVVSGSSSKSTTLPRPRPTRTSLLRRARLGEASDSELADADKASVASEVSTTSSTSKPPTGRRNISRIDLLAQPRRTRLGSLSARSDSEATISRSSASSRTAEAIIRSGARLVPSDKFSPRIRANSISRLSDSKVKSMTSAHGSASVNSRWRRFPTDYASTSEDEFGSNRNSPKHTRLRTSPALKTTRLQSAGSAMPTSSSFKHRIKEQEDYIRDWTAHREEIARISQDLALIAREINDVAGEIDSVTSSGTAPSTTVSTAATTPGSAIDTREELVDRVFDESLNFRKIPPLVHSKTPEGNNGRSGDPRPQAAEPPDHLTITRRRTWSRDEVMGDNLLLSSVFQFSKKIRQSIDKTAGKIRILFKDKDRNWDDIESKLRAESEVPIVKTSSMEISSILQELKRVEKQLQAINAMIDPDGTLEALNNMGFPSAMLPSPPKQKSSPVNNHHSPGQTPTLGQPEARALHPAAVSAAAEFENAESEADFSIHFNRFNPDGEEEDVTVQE
UniProt Q14061: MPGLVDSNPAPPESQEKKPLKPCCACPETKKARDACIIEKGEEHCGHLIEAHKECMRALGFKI
UniProt P30307: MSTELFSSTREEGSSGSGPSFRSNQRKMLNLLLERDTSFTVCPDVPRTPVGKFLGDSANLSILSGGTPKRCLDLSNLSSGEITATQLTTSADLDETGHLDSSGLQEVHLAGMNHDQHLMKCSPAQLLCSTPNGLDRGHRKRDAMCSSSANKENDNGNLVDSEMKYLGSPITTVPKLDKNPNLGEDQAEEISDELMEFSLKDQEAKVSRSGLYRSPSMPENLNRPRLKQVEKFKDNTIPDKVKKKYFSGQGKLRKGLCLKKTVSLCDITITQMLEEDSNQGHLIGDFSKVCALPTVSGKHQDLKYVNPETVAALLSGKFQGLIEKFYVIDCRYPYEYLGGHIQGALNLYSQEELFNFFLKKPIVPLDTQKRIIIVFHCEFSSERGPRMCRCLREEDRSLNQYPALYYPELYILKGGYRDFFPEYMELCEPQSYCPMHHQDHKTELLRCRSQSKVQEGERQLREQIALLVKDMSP
UniProt O95273: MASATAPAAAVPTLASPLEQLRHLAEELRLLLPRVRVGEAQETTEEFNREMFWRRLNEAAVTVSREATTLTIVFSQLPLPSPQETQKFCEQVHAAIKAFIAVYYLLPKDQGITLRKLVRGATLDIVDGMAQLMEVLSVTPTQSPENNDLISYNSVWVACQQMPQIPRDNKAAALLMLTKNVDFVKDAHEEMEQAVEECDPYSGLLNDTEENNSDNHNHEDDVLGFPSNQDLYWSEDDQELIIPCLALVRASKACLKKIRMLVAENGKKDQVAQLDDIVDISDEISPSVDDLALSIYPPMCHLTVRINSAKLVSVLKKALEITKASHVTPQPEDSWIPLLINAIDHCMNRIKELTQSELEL
UniProt Q9UHD1: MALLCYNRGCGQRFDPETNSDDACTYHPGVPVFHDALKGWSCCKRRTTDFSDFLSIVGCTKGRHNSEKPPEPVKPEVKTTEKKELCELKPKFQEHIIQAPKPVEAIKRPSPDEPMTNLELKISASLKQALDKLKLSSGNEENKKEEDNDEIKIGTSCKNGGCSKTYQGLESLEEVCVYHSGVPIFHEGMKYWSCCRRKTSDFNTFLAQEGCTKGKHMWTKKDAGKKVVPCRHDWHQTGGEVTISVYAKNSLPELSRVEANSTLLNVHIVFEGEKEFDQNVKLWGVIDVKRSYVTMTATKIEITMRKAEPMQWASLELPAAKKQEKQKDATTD
UniProt Q8N8E3: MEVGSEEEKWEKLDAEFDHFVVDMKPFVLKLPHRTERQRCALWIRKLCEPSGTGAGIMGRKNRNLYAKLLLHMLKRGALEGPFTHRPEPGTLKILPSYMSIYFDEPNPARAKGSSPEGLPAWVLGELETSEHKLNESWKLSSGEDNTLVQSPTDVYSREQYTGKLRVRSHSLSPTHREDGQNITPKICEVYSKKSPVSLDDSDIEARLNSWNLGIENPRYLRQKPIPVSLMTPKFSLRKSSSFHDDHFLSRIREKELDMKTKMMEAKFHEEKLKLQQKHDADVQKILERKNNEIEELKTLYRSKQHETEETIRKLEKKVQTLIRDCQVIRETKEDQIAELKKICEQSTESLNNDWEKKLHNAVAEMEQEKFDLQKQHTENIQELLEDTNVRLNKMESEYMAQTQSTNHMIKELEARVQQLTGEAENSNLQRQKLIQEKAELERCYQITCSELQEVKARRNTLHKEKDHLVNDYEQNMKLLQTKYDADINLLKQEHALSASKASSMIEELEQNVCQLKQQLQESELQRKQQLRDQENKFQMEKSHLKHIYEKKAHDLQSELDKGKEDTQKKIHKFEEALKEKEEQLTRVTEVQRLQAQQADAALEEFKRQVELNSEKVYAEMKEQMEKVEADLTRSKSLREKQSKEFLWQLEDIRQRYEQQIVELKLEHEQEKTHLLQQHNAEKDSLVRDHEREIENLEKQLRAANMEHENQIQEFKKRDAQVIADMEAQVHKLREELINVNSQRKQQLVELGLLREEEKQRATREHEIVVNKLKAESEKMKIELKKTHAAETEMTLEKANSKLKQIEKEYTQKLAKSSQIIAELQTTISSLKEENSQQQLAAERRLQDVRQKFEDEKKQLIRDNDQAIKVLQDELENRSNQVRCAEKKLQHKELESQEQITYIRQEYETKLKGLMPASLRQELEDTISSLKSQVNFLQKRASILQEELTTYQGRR

Target	dose-dependent thermal stabilisation call
CDK2 (UniProt P24941)	inactive: 0
CHMP2B (UniProt Q9UQN3)	inactive: 0
CBLL1 (UniProt Q75N03)	inactive: 0
CASP6 (UniProt P55212)	inactive: 0
CDC20 (UniProt Q12834)	inactive: 0
COPA (UniProt P53621)	inactive: 0
CENPC (UniProt Q03188)	inactive: 0
CIT (UniProt O14578)	inactive: 0
CENPK (UniProt Q9BS16)	inactive: 0
CBFA2T3 (UniProt O75081)	inactive: 0
CEP41 (UniProt Q9BYV8)	inactive: 0
CORO1A (UniProt P31146)	inactive: 0
CLTB (UniProt P09497)	inactive: 0
CFAP36 (UniProt Q96G28)	inactive: 0
CLIP4 (UniProt Q8N3C7)	inactive: 0
CCDC102A (UniProt Q96A19)	inactive: 0
CPSF6 (UniProt Q16630)	active: 1
CHRAC1 (UniProt Q9NRG0)	inactive: 0
CEBPG (UniProt P53567)	inactive: 0

For convenience, part of the list above:
Target	dose-dependent thermal stabilisation call
CBFA2T3 (UniProt O75081)	inactive: 0
CEP41 (UniProt Q9BYV8)	inactive: 0

(listing goes on)

Target	dose-dependent thermal stabilisation call
CBL (UniProt P22681)	inactive: 0
COG1 (UniProt Q8WTW3)	inactive: 0
COX4I1 (UniProt P13073)	inactive: 0
COPS7B (UniProt Q9H9Q2)	inactive: 0
COMMD4 (UniProt Q9H0A8)	inactive: 0
CMTR1 (UniProt Q8N1G2)	active: 1
CEP170 (UniProt Q5SW79)	inactive: 0
CDH2 (UniProt P19022)	inactive: 0
CD3EAP (UniProt O15446)	inactive: 0
COX17 (UniProt Q14061)	inactive: 0
CDC25C (UniProt P30307)	inactive: 0
COPZ1 (UniProt P61923)	inactive: 0
CCNDBP1 (UniProt O95273)	inactive: 0
CHORDC1 (UniProt Q9UHD1)	inactive: 0
CEP112 (UniProt Q8N8E3)	inactive: 0
CIAPIN1 (UniProt Q6FI81)	inactive: 0
CNN2 (UniProt Q99439)	inactive: 0
CLUH (UniProt O75153)	inactive: 0
